Consider 1 substance from publication PMC7481418.

The chains behind the UniProt entries cited, without tags or fusion partners.
UniProt P28698: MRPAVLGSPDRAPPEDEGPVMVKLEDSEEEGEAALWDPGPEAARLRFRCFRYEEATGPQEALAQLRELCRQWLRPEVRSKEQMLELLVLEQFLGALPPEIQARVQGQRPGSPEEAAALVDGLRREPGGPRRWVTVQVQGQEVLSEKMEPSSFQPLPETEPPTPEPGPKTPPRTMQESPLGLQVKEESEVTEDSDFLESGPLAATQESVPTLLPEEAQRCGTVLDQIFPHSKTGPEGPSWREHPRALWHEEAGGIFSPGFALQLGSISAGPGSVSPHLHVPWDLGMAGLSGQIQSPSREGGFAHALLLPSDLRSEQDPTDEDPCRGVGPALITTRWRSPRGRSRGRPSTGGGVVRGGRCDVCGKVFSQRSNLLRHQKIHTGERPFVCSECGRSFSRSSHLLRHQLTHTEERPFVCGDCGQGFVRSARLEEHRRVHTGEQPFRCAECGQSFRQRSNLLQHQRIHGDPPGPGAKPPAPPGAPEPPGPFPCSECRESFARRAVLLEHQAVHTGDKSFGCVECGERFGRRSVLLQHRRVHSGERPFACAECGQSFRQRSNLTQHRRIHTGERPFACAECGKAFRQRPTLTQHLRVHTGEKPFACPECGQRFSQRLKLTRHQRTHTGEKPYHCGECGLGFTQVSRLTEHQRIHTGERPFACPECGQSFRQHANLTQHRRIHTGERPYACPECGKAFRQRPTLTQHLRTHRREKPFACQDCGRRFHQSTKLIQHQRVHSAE
UniProt Q9UNE7: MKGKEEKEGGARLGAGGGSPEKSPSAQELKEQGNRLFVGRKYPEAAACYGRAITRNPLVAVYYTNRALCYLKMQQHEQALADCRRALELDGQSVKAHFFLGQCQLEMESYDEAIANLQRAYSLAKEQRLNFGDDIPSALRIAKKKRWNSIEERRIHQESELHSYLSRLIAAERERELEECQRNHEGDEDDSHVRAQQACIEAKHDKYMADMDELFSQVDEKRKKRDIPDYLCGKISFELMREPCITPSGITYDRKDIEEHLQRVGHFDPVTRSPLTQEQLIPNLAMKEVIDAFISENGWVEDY

Results are given in words; binding and its absence hold for the method and conditions named. In cells and extracts the contact can be indirect. Some results given as binding are weak or reduced against the parent protein; the word gives no strength.

The target in this assay is myeloid zinc finger 1 (MZF1) (human (endogenous in BxPC-3 and PANC-1)) (UniProt P28698). Nature of the assay: co-IP; lysates of BxPC-3/PANC-1 cells transfected with vector or MTSS1-AS overexpression plasmid, cultured in normal (pH 7.4) or acidic (pH 6.8) medium; precipitated overnight at 4 °C with anti-MZF1 or anti-STUB1 (4 μg/mL; control IgG) and Protein A/G PLUS-Agarose; Western blot with anti-MZF1 and anti-STUB1.

In the case of “STIP1 homology and U-box containing protein 1 (STUB1) (from UniProt Q9UNE7 1-303) (enzyme)”, the binding result is given as “binds”.
